## Assay results

Data taken from PubChem BioAssay AID504749, deposited by NCATS (2011).

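A panel of P. falciparum strains inside erythrocytes is exposed to compounds for three days, then a DNA-binding dye reports the amount of parasite DNA. Each compound was titrated across a series from about 0.000037 to 29 µM. The number is the fitted AC50, the concentration giving a half-maximal change in signal; a lower value means higher potency, whether the curve shows a decrease or an increase. Calls follow the curve class and fit quality: every row here is inconclusive, covering signal-raising curves and weak, poorly fitted, partial or highest-dose-only inhibition curves.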

Values are in nM. All entries here are filed as inconclusive. Only part of the assay is shown, chiefly results filed as inconclusive. Potencies fitted to partial, single-point or poorly fitting curves are rough. Some entries filed as inconclusive have a full curve.

structure | condition | Potency (nM) | curve
CCN(CC)C(=O)N[C@@H]1C[C@@H]2c3cccc4[nH]cc(c34)C[C@H]2N(C)C1 | N140 | 3981 | inhibitor, partial curve
CCN(CC)C(=O)N[C@@H]1C[C@@H]2c3cccc4[nH]cc(c34)C[C@H]2N(C)C1 | ICS | 3981 | inhibitor, partial curve, poor fit
CCN(CC)C(=O)N[C@@H]1C[C@@H]2c3cccc4[nH]cc(c34)C[C@H]2N(C)C1 | TAB113 | 5623 | inhibitor, partial curve, poor fit
CCN(CC)C(=O)N[C@@H]1C[C@@H]2c3cccc4[nH]cc(c34)C[C@H]2N(C)C1 | HB3 | 1778 | inhibitor, full curve
CCN(CC)C(=O)N[C@@H]1C[C@@H]2c3cccc4[nH]cc(c34)C[C@H]2N(C)C1 | CP329 | 3793 | inhibitor, full curve
CCN(CC)C(=O)N[C@@H]1C[C@@H]2c3cccc4[nH]cc(c34)C[C@H]2N(C)C1 | CP203 | 6012 | inhibitor, partial curve, poor fit
CCN(CC)C(=O)N[C@@H]1C[C@@H]2c3cccc4[nH]cc(c34)C[C@H]2N(C)C1 | SC27B | 2818 | inhibitor, partial curve
CCN(CC)C(=O)N[C@@H]1C[C@@H]2c3cccc4[nH]cc(c34)C[C@H]2N(C)C1 | TAB165 | 1585 | inhibitor, partial curve
CCN(CC)C(=O)N[C@@H]1C[C@@H]2c3cccc4[nH]cc(c34)C[C@H]2N(C)C1 | DIV30 | 4776 | inhibitor, partial curve
CCN(CC)C(=O)N[C@@H]1C[C@@H]2c3cccc4[nH]cc(c34)C[C@H]2N(C)C1 | CP305 | 3381 | inhibitor, partial curve
CCN(CC)C(=O)N[C@@H]1C[C@@H]2c3cccc4[nH]cc(c34)C[C@H]2N(C)C1 | CP315 | 6746 | inhibitor, partial curve
CCN(CC)C(=O)N[C@@H]1C[C@@H]2c3cccc4[nH]cc(c34)C[C@H]2N(C)C1 | CP286 | 3548 | inhibitor, partial curve
CCN(CC)C(=O)N[C@@H]1C[C@@H]2c3cccc4[nH]cc(c34)C[C@H]2N(C)C1 | DFO2036 | 2239 | inhibitor, full curve
CCN(CC)C(=O)N[C@@H]1C[C@@H]2c3cccc4[nH]cc(c34)C[C@H]2N(C)C1 | P94_40 | 1000 | inhibitor, full curve
CCN(CC)C(=O)N[C@@H]1C[C@@H]2c3cccc4[nH]cc(c34)C[C@H]2N(C)C1 | CP325 | 6746 | inhibitor, partial curve
CCN(CC)C(=O)N[C@@H]1C[C@@H]2c3cccc4[nH]cc(c34)C[C@H]2N(C)C1 | PAD | 1000 | inhibitor, full curve
CCN(CC)C(=O)N[C@@H]1C[C@@H]2c3cccc4[nH]cc(c34)C[C@H]2N(C)C1 | TAB109 | 2239 | inhibitor, full curve
CCN(CC)C(=O)N[C@@H]1C[C@@H]2c3cccc4[nH]cc(c34)C[C@H]2N(C)C1 | CP269 | 3793 | inhibitor, partial curve
CCN(CC)C(=O)N[C@@H]1C[C@@H]2c3cccc4[nH]cc(c34)C[C@H]2N(C)C1 | CP266 | 1.2 | inhibitor, full curve, poor fit
CCN(CC)C(=O)N[C@@H]1C[C@@H]2c3cccc4[nH]cc(c34)C[C@H]2N(C)C1 | CP297 | 4776 | inhibitor, partial curve, poor fit
CCN(CC)C(=O)N[C@@H]1C[C@@H]2c3cccc4[nH]cc(c34)C[C@H]2N(C)C1 | CP262 | 15101 | inhibitor, single point
CCN(CC)C(=O)N[C@@H]1C[C@@H]2c3cccc4[nH]cc(c34)C[C@H]2N(C)C1 | JCK | 10000 | inhibitor, single point
CCN(CC)C(=O)N[C@@H]1C[C@@H]2c3cccc4[nH]cc(c34)C[C@H]2N(C)C1 | CP335 | 4256 | inhibitor, full curve
CCN(CC)C(=O)N[C@@H]1C[C@@H]2c3cccc4[nH]cc(c34)C[C@H]2N(C)C1 | CP291 | 4776 | inhibitor, partial curve, poor fit
CCN(CC)C(=O)N[C@@H]1C[C@@H]2c3cccc4[nH]cc(c34)C[C@H]2N(C)C1 | DIV14 | 7569 | inhibitor, partial curve
CCN(CC)C(=O)N[C@@H]1C[C@@H]2c3cccc4[nH]cc(c34)C[C@H]2N(C)C1 | P93_24 | 1259 | inhibitor, full curve
CCN(CC)C(=O)N[C@@H]1C[C@@H]2c3cccc4[nH]cc(c34)C[C@H]2N(C)C1 | DIV17 | 11995 | inhibitor, partial curve
CCN(CC)C(=O)N[C@@H]1C[C@@H]2c3cccc4[nH]cc(c34)C[C@H]2N(C)C1 | CP265 | 3162 | inhibitor, partial curve
CCN(CC)C(=O)N[C@@H]1C[C@@H]2c3cccc4[nH]cc(c34)C[C@H]2N(C)C1 | PC26 | 1694 | inhibitor, full curve
CCN(CC)C(=O)N[C@@H]1C[C@@H]2c3cccc4[nH]cc(c34)C[C@H]2N(C)C1 | GB4 | 2686 | inhibitor, full curve
C=C(C)[C@H]1CN[C@H](C(=O)O)[C@H]1CC(=O)O | P93_24 | 2818 | inhibitor, partial curve
C=C(C)[C@H]1CN[C@H](C(=O)O)[C@H]1CC(=O)O | P94_40 | 17782 | inhibitor, single point
C=C(C)[C@H]1CN[C@H](C(=O)O)[C@H]1CC(=O)O | CP268 | 0.5 | inhibitor
C=C(C)[C@H]1CN[C@H](C(=O)O)[C@H]1CC(=O)O | CP297 | 21331 | inhibitor, single point
CCn1cc(C(=O)O)c(=O)c2cc(F)c(N3CCN(C)CC3)cc21 | AS120 | 3162 | inhibitor, single point
CCn1cc(C(=O)O)c(=O)c2cc(F)c(N3CCN(C)CC3)cc21 | CP335 | 13459 | inhibitor, single point
CCn1cc(C(=O)O)c(=O)c2cc(F)c(N3CCN(C)CC3)cc21 | TAB113 | 3981 | inhibitor, single point
CCn1cc(C(=O)O)c(=O)c2cc(F)c(N3CCN(C)CC3)cc21 | CP217 | 707.9 | inhibitor, single point
CCn1cc(C(=O)O)c(=O)c2cc(F)c(N3CCN(C)CC3)cc21 | CP256 | 1778 | inhibitor, single point
CCn1cc(C(=O)O)c(=O)c2cc(F)c(N3CCN(C)CC3)cc21 | parasite line A | 2818 | inhibitor, single point
CCn1cc(C(=O)O)c(=O)c2cc(F)c(N3CCN(C)CC3)cc21 | CP247 | 3981 | inhibitor, single point
CCn1cc(C(=O)O)c(=O)c2cc(F)c(N3CCN(C)CC3)cc21 | 7G8 | 8912 | inhibitor, partial curve, poor fit
CCn1cc(C(=O)O)c(=O)c2cc(F)c(N3CCN(C)CC3)cc21 | CP305 | 3793 | inhibitor, full curve

Some entries from above, unchanged:

structure	condition	Potency (nM)	curve
CCN(CC)C(=O)N[C@@H]1C[C@@H]2c3cccc4[nH]cc(c34)C[C@H]2N(C)C1	CP262	15101	inhibitor, single point
CCN(CC)C(=O)N[C@@H]1C[C@@H]2c3cccc4[nH]cc(c34)C[C@H]2N(C)C1	PC26	1694	inhibitor, full curve
CCN(CC)C(=O)N[C@@H]1C[C@@H]2c3cccc4[nH]cc(c34)C[C@H]2N(C)C1	ICS	3981	inhibitor, partial curve, poor fit
CCN(CC)C(=O)N[C@@H]1C[C@@H]2c3cccc4[nH]cc(c34)C[C@H]2N(C)C1	N140	3981	inhibitor, partial curve
CCN(CC)C(=O)N[C@@H]1C[C@@H]2c3cccc4[nH]cc(c34)C[C@H]2N(C)C1	CP291	4776	inhibitor, partial curve, poor fit
CCN(CC)C(=O)N[C@@H]1C[C@@H]2c3cccc4[nH]cc(c34)C[C@H]2N(C)C1	CP335	4256	inhibitor, full curve